Reference: patent publication US20190062422A1
Numbering of substitutions follows the chain as printed. No constants are given. Whether binding was seen depends on the method and setting. One block for each binder: values may come before it.

Assays:
lysozyme [1] = assay: ELISA, purified chimeric human/mouse IgG2a on lysozyme (negative control antigen)
lysozyme [2] = assay: ELISA, purified chimeric IgG2a

B1: MOR12751 (antibody, V domains shown)
VH: QVQLQQSGPGLVKPSQTLSLTCAISGDSVSSNSAAWNWIRQSPSRGLEWLGVIYYRSKWYINYADSVKSRITINPDTSKNQFSLQLNSVTPEDTAVYYCAREGIVGGWFAYWGQGTLVTVSS
VL: DIELTQPPSVSVSPGQTASITCSGDKLGSKIAHWYQQKPGQAPVLVIYDDNERPSGIPERFSGSNSGNTATLTISGTQAEDEADYYCQSWDYLSWSVVFGGGTKLTVL
binding (lysozyme [1]): no binding
binding (lysozyme [2]): no binding

B2: MOR12742 (antibody, V domains shown)
VH: QVQLVQSGAEVKKPGSSVKVSCKASGGTFSSYGISWVRQAPGQGLEWMGRIIPIFGTAYYAQKFQGRVTITADESTSTAYMELSSLRSEDTAVYYCARDMRYHDYWPYYYGSDQFDVWGQGTLVTVSS
VL: DIVLTQPPSVSGAPGQRVTISCSGSSSNIGSDIVSWYQQLPGTAPKLLIYYNNLRPSGVPDRFSGSKSGTSASLAITGLQAEDEADYYCQSWDWASLAMVFGGGTKLTVLG
binding (lysozyme [2]): no binding

B4: MOR12740 (antibody, V domains shown)
VH: QVQLVQSGAEVKKPGSSVKVSCKASGGTFSIYAISWVRQAPGQGLEWMGGIIPILGIANYAQKFQGRVTITADESTSTAYMELSSLRSEDTAVYYCARDATHSYYHDYWGQGTLVTVSS
VL: DIALTQPASVSGSPGQSITISCTGTSSDVGSYETVSWYQQHPGKAPKVMIYEVSDRPSGVSNRFSGSKSGNTASLTISGLQAEDEADYYCGSFAHWGSWVFGGGTKLTVLG
binding (lysozyme [1]): no binding
binding (lysozyme [2]): no binding

B8: MOR12743 (antibody, V domains shown)
VH: QVQLVQSGAEVKKPGASVKVSCKASGYTFTSNFIHWVRQAPGQGLEWMGWISPYNGDTNYAQKFQGRVTMTRDTSISTAYMELSRLRSEDTAVYYCARESVYYGSDYGYNGMDIWGQGTLVTVSS
VL: DIELTQPPSVSVSPGQTASITCSGDNLGEEYVSWYQQKPGQAPVLVIYDDTKRPSGIPERFSGSNSGNTATLTISGTQAEDEADYYCASWDLWSVEVFGGGTKLTVLG
binding (lysozyme [1]): no binding
binding (lysozyme [2]): no binding

B9: MOR12744 (antibody, V domains shown)
VH: B8 VH
VL: B8 VL with D91A, L92F, W93Y, V95S, E96Q
binding (lysozyme [1]): no binding
binding (lysozyme [2]): no binding

B10: MOR12753 (antibody, V domains shown)
VH: QVQLQQSGPGLVKPSQTLSLTCAISGDSVSSSSAAWNWIRQSPSRGLEWLGRIEYRSKWYNDYAVSVKSRITINPDTSKNQFSLQLNSVTPEDTAVYYCAREMYYYSGYGVFDVWGQGTLVTVSS
VL: B8 VL with N26A, E29G, S33H, T51D, A88S, W90F, L92T, S94T, V95S, E96Y
binding (lysozyme [2]): no binding

B11: MOR12746 (antibody, V domains shown)
VH: B8 VH
VL: B8 VL with A88S, D91T, L92H, W93F, V95N, E96I
binding (lysozyme [1]): no binding
binding (lysozyme [2]): no binding

B12: MOR12745 (antibody, V domains shown)
VH: B8 VH
VL: B8 VL with A88S, S89A, D91A, L92T, E96A
binding (lysozyme [1]): no binding
binding (lysozyme [2]): no binding

B17: MOR12741 (antibody, V domains shown)
VH: QVQLVQSGAEVKKPGSSVKVSCKASGGTFSSYAISWVRQAPGQGLEWMGMIMPEVGMADYAQKFQGRVTITADESTSTAYMELSSLRSEDTAVYYCARDFIAVGSLEIWHYYYGLDVWGQGTLVTVSS
VL: DIELTQPPSVSVSPGQTASITCSGDNIGEHYASWYQQKPGQAPVLVISYDNERPSGIPERFSGSNSGNTATLTISGTQAEDEADYYCQSWTSQKPDYVFGGGTKLTVLG
binding (lysozyme [1]): no binding
binding (lysozyme [2]): no binding

Results, then the binder that gave them:

binding (lysozyme [2]): no binding
B3: MOR12756 (antibody, V domains shown)
VH: QVQLQQSGPGLVKPSQTLSLTCAISGDSVSDNSVAWNWIRQSPSRGLEWLGRIYYRSKWYNDYAVSVKSRITINPDTSKNQFSLQLNSVTPEDTAVYYCAREVLLFPARSYGTGMDVWGQGTLVTVSS
VL: DIELTQPPSVSVSPGQTASITCSGDNLPSKYVHWYQQKPGQAPVLVIYDDNERPSGIPERFSGSNSGNTATLTISGTQAEDEADYYCGVADMPRQMKVFGGGTKLTVLG

binding (lysozyme [2]): no binding
B5: MOR12758 (antibody, V domains shown)
VH: EVQLVQSGAEVKKPGESLKISCKGSGYSFTDYWISWVRQMPGKGLEWMGAIDPTDSYTRYSPSFQGQVTISADKSISTAYLQWSSLKASDTAMYYCARWYTSHPYYEGRYPMDVWGQGTLVTVSS
VL: DIALTQPASVSGSPGQSITISCTGTSSDVGHYNYVSWYQQHPGKAPKLMIYGVTKRPSGVSNRFSGSKSGNTASLTISGLQAEDEADYYCASADEWPTLHVFGGGTKLTVLG

binding (lysozyme [1]): no binding
binding (lysozyme [2]): no binding
B6: MOR12754 (antibody, V domains shown)
VH: EVQLLESGGGLVQPGGSLRLSCAASGFTFSDYAMTWVRQAPGKGLEWVSVISYDGSLTYYADSVKGRFTISRDNSKNTLYLQMNSLRAEDTAVYYCARDPGVWWLSYLDYWGQGTLVTVSS
VL: DIQMTQSPSSLSASVGDRVTITCRASQDIISYLAWYQQKPGKAPKLLIYGASNLQGGVPSRFSGSGSGTDFTLTISSLQPEDFAVYYCQQYMIAPPNTFGQGTKVEIKR

binding (lysozyme [2]): no binding
B7: MOR12755 (antibody, V domains shown)
VH: QVQLQQSGPGLVKPSQTLSLTCAISGDSVSSNSAAWNWIRQSPSRGLEWLGKTYYRSTWSNDYAESVKSRITINPDTSKNQFSLQLNSVTPEDTAVYYCAREMDSLTRSASSIAFDYWGQGTLVTVSS
VL: DIELTQPPSVSVSPGQTASITCSGDNLREHYVHWYQQKPGQAPVLVIYDDTERPSGIPERFSGSNSGNTATLTISGTQAEDEADYYCATRDWSNVVFGGGTKLTVLG

binding (lysozyme [1]): no binding
binding (lysozyme [2]): no binding
B13: MOR12759 (antibody, V domains shown)
VH: EVQLVQSGAEVKKPGESLKISCKGSGYSFNNYWIAWVRQMPGKGLEWMGFIYPSNSATQYSPSFQGQVTISADKSISTAYLQWSSLKASDTAMYYCARDNEYSDSYFDVWGQGTLVTVSS
VL: DIVLTQSPATLSLSPGERATLSCRASQIVSSYLAWYQQKPGQAPRLLIYDASSRATGIPARFSGSGSGTDFTLTISSLEPEDFAVYYCQQSVNFPTTFGQGTKVEIKR

binding (lysozyme [1]): no binding
binding (lysozyme [2]): no binding
B14: MOR12761 (antibody, V domains shown)
VH: B13 VH
VL: B13 VL with V85T, V92N, N93G, F94W, P95L, T96P

binding (lysozyme [1]): no binding
binding (lysozyme [2]): no binding
B15: MOR12762 (antibody, V domains shown)
VH: B13 VH
VL: B13 VL with V92E, N93Q, F94V

binding (lysozyme [2]): no binding
B16: MOR12757 (antibody, V domains shown)
VH: EVQLLESGGGLVQPGGSLRLSCAASGFTFSSYAMSWVRQAPGKGLEWVSFISSGGSETFYADSVKGRFTISRDNSKNTLYLQMNSLRAEDTAVYYCARVSYIYYYSWVLFDVWGQGTLVTVSS
VL: DIQMTQSPSSLSASVGDRVTITCRASQGIGTALNWYQQKPGKAPKLLIYDVSSLQSGVPSRFSGSGSGTDFTLTISSLQPEDFATYYCQQGLFLPFTFGQGTKVEIKR
